For 2 compounds, Emax mean and EC50 results are on record in patent US20240182456A1, “2-((4-((S)-2-(4-CHLORO-2-FLUOROPHENYL)-2-METHYLBENZO[D][1,3]DIOXOL-4-YL)PIPERIDIN-1-YL)METHYL)-1-(((S)-OXETAN-2-YL)METHYL)-1H-IMIDAZOLE DERIVATIVES AS ACTIVATORS OF THE GLP1 RECEPTOR FOR THE TREATMENT OF OBESITY” (Novartis AG, priority 2021, published 2024).

Chains of the proteins cited; added tags and fusions are not shown. Residues count along the entry.
UniProt P43220, 24-463 limits assumed: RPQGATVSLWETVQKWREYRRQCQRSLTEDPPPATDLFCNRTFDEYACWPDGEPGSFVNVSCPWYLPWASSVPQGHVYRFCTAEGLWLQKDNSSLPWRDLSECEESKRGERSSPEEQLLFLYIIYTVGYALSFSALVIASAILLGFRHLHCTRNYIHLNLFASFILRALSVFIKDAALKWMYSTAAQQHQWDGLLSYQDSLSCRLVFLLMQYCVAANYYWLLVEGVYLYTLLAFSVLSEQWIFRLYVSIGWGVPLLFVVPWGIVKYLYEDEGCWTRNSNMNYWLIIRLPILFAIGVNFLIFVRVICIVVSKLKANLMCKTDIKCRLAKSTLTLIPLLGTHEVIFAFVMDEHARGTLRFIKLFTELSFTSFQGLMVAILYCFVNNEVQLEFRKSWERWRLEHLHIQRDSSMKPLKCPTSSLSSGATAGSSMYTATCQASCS

This assay has as its target human GLP1R (hGLP1R) (Homo sapiens, UniProt P43220). The experiment in a line: Human GLP1R cAMP agonist assay (GloSensor). It is filed as cell-based. To be noted: HEK293-SNAP-hGLP1R-GloSensor cells; for EC50: read-out: EC50 mean, intracellular cAMP, mean n=3 where SEM is given. How it is done: Compounds 1 to 31 were tested in the following cellular assays that measure the intracellular cAMP concentration, beta-arrestin recruitment and receptor internalization. The cAMP is generated by the activation of GLP1R. The cAMP data obtained is shown in Table 1 (where S.E.M. is included, mean n=3 independent experiments+/−S.E.M). Beta-arrestin is recruited upon activation of GLP1R and the data obtained are shown in Table 2 (mean n=2 independent experiments, +/−S.D). The extent to which the GLP1R is internalized into the cell and away from the plasma membrane following activation is also shown in Table 2 (mean n=2 independent experiments, +/−S.D). EC50 for each assay is defined as the concentration of the compound that leads to half of the maximum response (after baseline correction). Emax is defined as the maximum response observed for the test compound, normalized to the maximum response observed for the endogenous ligand (GLP1(7-36)) to GLP1R.
Human GLP1R cAMP Agonist Assay
The agonist activity of compounds was determined using the GloSensor™ cAMP Assay (Promega Corp.), which measures changes in the intracellular concentration of cAMP after ligand activation of GPCRs. The assay uses a biosensor encoded by pGloSensor™-22F cAMP plasmid (Promega, cat #E2301) with cAMP binding domains fused to a mutant form of Photinus pyralis luciferase. Binding to cAMP causes conformational changes that promote large increases in light output, which can be measured by a luminescence detector. […] Luminescence was then measured with an Envision 2104 Multilabel reader with “TRF Light Unit, 337 nm” (PerkinElmer) using the Ultra-Sensitive protocol setting “384-well US luminescence detector” with the 384-well luminescence aperture, 0.1 seconds per well. cAMP activity was calculated as percent of the GLP1 (7-36) EC100 control wells: [(sample signal−mean EC0 signal)/(mean EC100 of GLP1 (7-36) signal−mean EC0 signal)}*100. […] The EC50 value was represented by the AC50 value calculated from Helios in μM. Emax is the maximal activity detected within the concentration range, derived from the fitted curve. […]

The match of structure and compound is tentative.

On to `Cc1c(-c2cc(F)cc(C(=O)O)c2)nc(CN2CCC(c3cccc4c3O[C@@](C)(c3ccc(Cl)cc3F)O4)CC2)n1C[C@@H]1CCO1`, for which the concentration giving a half-maximal response (EC50) turned out to be 0.607 nM. Further, under “cAMP, normalized to GLP1(7-36) maximum response”, the Emax mean came to 109%. Take `Cc1c(-c2ccc(C(=O)O)o2)nc(CN2CCC(c3cccc4c3O[C@@](C)(c3ccc(Cl)cc3F)O4)CC2)n1C[C@@H]1CCO1`: the concentration for a half-maximal effect (EC50) was 0.178 nM.

As a reminder, the EC50 is the midpoint of the concentration-response curve.
